# Measurements from PubChem BioAssay AID504444 (National Center for Advancing Translational Sciences (NCATS), 2011).
# The campaign covered roughly 360,000 compounds. About 7,500 (2.1%) were called active. Inconclusive means that the source gave no clear call. Such entries were picked first, then a sample of the others. The call rests on the fitted dose curve; in most records, active means well fitted inhibition curve with a large enough effect; inconclusive means small, poorly fitted or top-dose-only effect, or effect the other way; inactive means flat fitted curve, though single readings scatter. A potency beside an inconclusive call is a rough fit, not a confirmed value.
# Experiment: Nrf2 qHTS screen for inhibitors; further: nearly all actives have a fitted effect of over 60% in size
# Conditions: A549 ARE-Fluc reporter, luciferase luminescence, 18-24 h; activity change, negative = inhibition: at 46 µM (top of the series)
# Outline: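 Concentration-response testing used A549 ARE_Fluc cells at 5000 cells/well. Following an 18-24 h compound incubation, viability was read by fluorescence (Ex 405/Em 525) and luciferase output by luminescence.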
# On the % scale 0 is the no-effect control and ±100 the full control effect; potency means the concentration at half of the fitted maximal effect.
Structure (SMILES),Potency,"activity change, negative = inhibition"
Cc1c(C)c2cccnc2c2ncccc12,"inconclusive: 1.84 µM [falling, partial curve, poor fit]",
CN1CCN(CCNC(=O)c2cnn(-c3cccc(Cl)c3)c2C2CCN(C(=O)OC(C)(C)C)CC2)CC1,"inconclusive: 20.6 µM [falling, single point]",
Cc1ccc(NC(=O)CSc2ncc3c(n2)-c2ccccc2N(C)S3(=O)=O)c(Cl)c1,"inconclusive: 2.31 µM [activator, partial curve]",
COc1ccc(CN(C)c2ccc(-c3nc(C)no3)cc2[N+](=O)[O-])cc1,,inactive: 1.73%
Cc1ccn2c(NC(=O)C(C)(C)Oc3ccc(Cl)cc3)c(-c3cccs3)nc2c1,"inconclusive: 29.1 µM [falling, single point]",
CCCc1nnc(NC(=S)Nc2ccccc2)s1,"inconclusive: 29.1 µM [activator, single point]",
C=CCSc1nnc(-c2cc3c(C(F)(F)F)nn(C)c3s2)n1C,,inactive: -23.4%
CCOC(=O)c1nc2c(ccc3ccccc32)cc1C,"inconclusive: 29.1 µM [activator, single point]",
NC(N)=Nc1nc(-c2ccccc2)c2cc(F)ccc2n1,"inconclusive: 8.2 µM [falling, partial curve, poor fit]",
CC(C)CC(=O)NC(=S)Nc1ccc(N2CCN(C(=O)c3cccs3)CC2)cc1,"inconclusive: 25.9 µM [falling, single point]",
Clc1ccccc1OCc1nn2c(-c3ccncc3)nnc2s1,"inconclusive: 13 µM [falling, partial curve]",
COc1ccc(OCCCC(=O)Nc2ccc(S(=O)(=O)N3CCOCC3)cc2)cc1,"inconclusive: 25.9 µM [falling, partial curve, poor fit]",
CCOc1ccc(NS(=O)(=O)c2ccc3[nH]cc(C(=O)NC(C)CC)c(=O)c3c2)cc1 (stereo not drawn),"inconclusive: 29.1 µM [falling, single point]",
CCC(=NCc1ccco1)c1c(C(F)(F)F)[nH]n(-c2nc3ccccc3s2)c1=O,,inactive: 11.2%
CC(=O)Nc1ccccc1OCc1cc(=O)n2c(C)csc2n1,,inactive: -9.67%
O=[N+]([O-])c1ccc(Nc2ccccc2O)c2nonc12,,inactive: 0.975%
CCOC(=O)c1cn2nc(Oc3ccc(NC(C)=O)cc3)ccc2n1,"inconclusive: 18.4 µM [falling, partial curve, poor fit]",
N#Cc1c(C(F)(F)F)cc(-c2ccco2)nc1SCc1ccncc1,,inactive: -29.6%
O=C(CN1CCC(C(O)(c2ccccc2)c2ccccc2)CC1)Nc1cc(Cl)ccc1Cl,,inactive: 14%
O=C(NCCN1C(=O)S/C(=C\c2ccc(Cl)c([N+](=O)[O-])c2)C1=O)C1=COCCO1,,inactive: 1.48%
CCOc1ccc(C(=O)NCCCCNC(=O)c2ccc(OCC)cc2)cc1,"inconclusive: 3.66 µM [activator, single point]",
CC(=O)Nc1ccc2nc3ccccc3nc2c1,"inconclusive: 29.1 µM [falling, single point]",

# Copied from the entries so far for reference:
Structure (SMILES),Potency,"activity change, negative = inhibition"
CN1CCN(CCNC(=O)c2cnn(-c3cccc(Cl)c3)c2C2CCN(C(=O)OC(C)(C)C)CC2)CC1,"inconclusive: 20.6 µM [falling, single point]",
Cc1ccc(NC(=O)CSc2ncc3c(n2)-c2ccccc2N(C)S3(=O)=O)c(Cl)c1,"inconclusive: 2.31 µM [activator, partial curve]",
COc1ccc(CN(C)c2ccc(-c3nc(C)no3)cc2[N+](=O)[O-])cc1,,inactive: 1.73%
Cc1ccn2c(NC(=O)C(C)(C)Oc3ccc(Cl)cc3)c(-c3cccs3)nc2c1,"inconclusive: 29.1 µM [falling, single point]",
CCCc1nnc(NC(=S)Nc2ccccc2)s1,"inconclusive: 29.1 µM [activator, single point]",
C=CCSc1nnc(-c2cc3c(C(F)(F)F)nn(C)c3s2)n1C,,inactive: -23.4%
CCOC(=O)c1nc2c(ccc3ccccc32)cc1C,"inconclusive: 29.1 µM [activator, single point]",
NC(N)=Nc1nc(-c2ccccc2)c2cc(F)ccc2n1,"inconclusive: 8.2 µM [falling, partial curve, poor fit]",
CC(C)CC(=O)NC(=S)Nc1ccc(N2CCN(C(=O)c3cccs3)CC2)cc1,"inconclusive: 25.9 µM [falling, single point]",
Clc1ccccc1OCc1nn2c(-c3ccncc3)nnc2s1,"inconclusive: 13 µM [falling, partial curve]",
COc1ccc(OCCCC(=O)Nc2ccc(S(=O)(=O)N3CCOCC3)cc2)cc1,"inconclusive: 25.9 µM [falling, partial curve, poor fit]",

# The listing continues:

Structure (SMILES),Potency,"activity change, negative = inhibition"
CCC1CCC(C(=O)NC(C(=O)Nc2ccc3c(c2)OCCO3)C(C)C)CC1 (stereo not drawn),"inconclusive: 20.6 µM [activator, single point]",
CCOC(=O)c1cnn(-c2cccc(F)c2)c1C1CCNCC1,"inconclusive: 0.731 µM [activator, full curve, poor fit]",
Cc1ccccc1NC(=O)Cn1nc(C)n2cccc2c1=O,"inconclusive: 13 µM [activator, partial curve, poor fit]",
CCN1CCN(Cc2ccc(NC(=O)c3ccc(C)c(NC(=O)c4cncc(-c5cccs5)c4)c3)cc2C(F)(F)F)CC1,active: 8.2 µM,
COc1ccc(Cl)cc1NC(=S)NCCSc1ccc(C)cc1,,inactive: 4.72%
CCOc1cc(/C=N/O)cc(Br)c1OCC(=O)NCc1ccccc1,"inconclusive: 29.1 µM [falling, single point]",
CC(C)OP(=O)(OC(C)C)/C(C=O)=N\Nc1ccc([N+](=O)[O-])cc1,"inconclusive: 29.1 µM [falling, single point]",
Cc1ccc(-c2nnn(CC(=O)NC3CC4CCC3C4)n2)cc1 (stereo not drawn),"inconclusive: 16.4 µM [falling, partial curve, poor fit]",
COc1ccc(/C(O)=C2\C(=O)C(=O)N(Cc3ccco3)C2c2cc(OC)ccc2OC)cc1 (stereo not drawn),"inconclusive: 5.8 µM [falling, full curve, poor fit]",
COc1cc(C(=O)Nc2ccc(-c3cc(C(F)(F)F)nn3-c3ccccc3)cc2)cc(OC)c1OC,"inconclusive: 14.6 µM [falling, partial curve]",
COc1cc(OC)c(NC(=O)Cn2c(=O)cc(C(F)(F)F)c3c(C)nn(C)c32)cc1Cl,"inconclusive: 29.1 µM [activator, single point]",
Cc1ccc(C(=O)N(CCN(C)C)CC2CCCN(Cc3ccccc3F)C2)cc1C (stereo not drawn),,inactive: 0.353%
CCn1cnc2c1c(=O)n(Cc1csc(-c3ccccc3)n1)c(=O)n2Cc1ccccc1,"inconclusive: 29.1 µM [falling, single point]",
CC(=O)c1cccc(NC(=S)NC(=O)c2ccc(Cl)cc2)c1,"inconclusive: 2.31 µM [activator, single point]",
CC(=O)c1ccc(N2CCN(CC(O)COC(c3ccccc3)c3ccccc3)CC2)cc1 (stereo not drawn),,inactive: -9.23%
Cc1ccccc1NC(=O)CSc1nc2ccc(NC(=O)COc3ccccc3F)cc2s1,"inconclusive: 29.1 µM [falling, single point]",
Cc1ccc2c(CN3C(=O)NC(C)(c4ccc5c(c4)OCO5)C3=O)cc(=O)oc2c1 (stereo not drawn),"inconclusive: 16.4 µM [falling, partial curve]",
O=C(Nc1ccc(Oc2cccc(C(F)(F)F)c2)nc1)c1cccs1,active: 16.4 µM,
COc1ccccc1CNC(=O)C1CCN(S(=O)(=O)c2cccc3cccnc23)CC1,"inconclusive: 0.651 µM [falling, partial curve, poor fit]",
Cc1ccc(-c2cc(-c3ccc(C)o3)nc(N)c2C#N)cc1,,inactive: 26.6%
O=C(CC(=O)Nc1ccccc1C(F)(F)F)Nc1ccccc1C(F)(F)F,,inactive: 16.6%
